In article PMC12887393:
Positions count from the first letter of the chain named. For at least one entry, the source does not settle the construct or the ends of the probe. Where a protein sequence is shown, tags need not be part of it.

How the values were obtained:
Experiment in all cases: EMSA
[1] = tested on: T1, MBP-RAD51AP1-F3-S2D-His6 S277D,S282D; conditions: not significantly different from WT; EMSA buffer; KD(app) from one-site specific binding fit (GraphPad Prism 10), n = 3-4; recombinant protein; residues …; protein details: N-terminal MBP, C-terminal His6; label: Cy5; single-stranded DNA
T1 sequence (looked up): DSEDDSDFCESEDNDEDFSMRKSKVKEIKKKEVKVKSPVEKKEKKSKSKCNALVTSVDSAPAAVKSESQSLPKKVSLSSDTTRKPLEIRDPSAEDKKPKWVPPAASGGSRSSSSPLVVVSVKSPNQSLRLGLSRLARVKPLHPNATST

[2] = tested on: T2, MBP-RAD51AP1-F3-S2A-His6 S277A,S282A; conditions: tighter than WT and S2D; EMSA buffer; KD(app) from one-site specific binding fit (GraphPad Prism 10), n = 3-4; recombinant protein; residues 188-335; protein details: N-terminal MBP, C-terminal His6; label: Cy5; single-stranded DNA
T2 sequence (looked up): T1 sequence (looked up) with D90A, D95A

[3] = tested on: T3, MBP-RAD51AP1-F3-His6 (WT); conditions: EMSA buffer; KD(app) from one-site specific binding fit (GraphPad Prism 10), n = 3-4; recombinant protein; residues 188-335; protein details: N-terminal MBP, C-terminal His6; label: Cy5; single-stranded DNA
T3 sequence (looked up): T1 sequence (looked up) with D90S, D95S

Measured: binding result

TCGTAGACAGCTCTAGCACCGCTTAAACGCACGTAGGCGCTGTCCCCCGCGTTTTAACCGCCAAGGGGATTACTCCCTAG [Cy5-ssDNA 80-mer]
binds: all assays above
